Results taken from article PMC10933477.
Results are given in words; binding and its absence hold for the method and conditions named. Binding seen in cells or lysates may run through a third protein. Some results given as binding are weak or reduced against the parent protein; the word gives no strength.

T1: dTak1 (Drosophila TGF-beta activating kinase 1) (Drosophila melanogaster) (UniProt Q9V3Q6)
T1 sequence: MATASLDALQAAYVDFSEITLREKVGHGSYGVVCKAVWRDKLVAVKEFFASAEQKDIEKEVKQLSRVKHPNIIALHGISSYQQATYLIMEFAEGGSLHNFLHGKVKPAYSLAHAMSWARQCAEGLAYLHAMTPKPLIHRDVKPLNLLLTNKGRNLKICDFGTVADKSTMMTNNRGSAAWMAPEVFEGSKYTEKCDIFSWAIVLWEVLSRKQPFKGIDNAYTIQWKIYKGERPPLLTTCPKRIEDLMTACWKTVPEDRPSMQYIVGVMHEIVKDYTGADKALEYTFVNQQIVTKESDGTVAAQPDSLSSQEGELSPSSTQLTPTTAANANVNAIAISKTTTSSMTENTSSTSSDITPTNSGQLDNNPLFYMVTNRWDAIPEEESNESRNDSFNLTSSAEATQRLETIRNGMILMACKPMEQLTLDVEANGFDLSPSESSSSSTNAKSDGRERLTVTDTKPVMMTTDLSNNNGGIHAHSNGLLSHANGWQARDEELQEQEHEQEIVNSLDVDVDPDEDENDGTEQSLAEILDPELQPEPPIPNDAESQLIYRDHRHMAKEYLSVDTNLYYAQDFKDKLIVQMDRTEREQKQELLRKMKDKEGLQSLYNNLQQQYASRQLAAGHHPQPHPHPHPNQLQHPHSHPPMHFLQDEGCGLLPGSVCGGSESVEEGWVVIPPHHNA

T2: Imd (immune deficiency) (Drosophila melanogaster) (UniProt Q7K4Z4)
T2 sequence: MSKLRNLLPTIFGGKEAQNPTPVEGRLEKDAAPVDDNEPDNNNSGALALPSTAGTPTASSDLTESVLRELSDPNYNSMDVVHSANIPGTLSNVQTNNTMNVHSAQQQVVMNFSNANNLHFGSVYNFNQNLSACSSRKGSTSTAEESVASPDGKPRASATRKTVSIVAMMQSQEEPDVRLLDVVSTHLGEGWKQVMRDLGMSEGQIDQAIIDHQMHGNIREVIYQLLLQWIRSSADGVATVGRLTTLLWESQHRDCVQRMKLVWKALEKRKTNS


How the values were obtained:
[1] = target: T1, dTak1 (Drosophila TGF-beta activating kinase 1) (Drosophila melanogaster); assay: co-IP; S2 cells transfected with expression plasmids for 48 h; lysis in 150 mM NaCl, 50 mM Tris-HCl pH 7.5, 10% glycerol, 0.5% Triton X-100, 1 mM PMSF; anti-Flag M2 or anti-Myc affinity gel, 4 °C, 4 h; washed three times with 500 mM NaCl buffer; Western blot
[2] = target: T2, Imd (immune deficiency) (Drosophila melanogaster); assay: as above

| binding [1] | binding [2] | Binder |
| --- | --- | --- |
| binds | no binding | eIF3f1 (eukaryotic translation initiation factor 3 subunit f1), full length (protein, UniProt Q9VN50 1-280) MSALNLTVRVHPVVLFQVVDAFERRNADSHRVIGTLLGSVDKGVVEVTNCFCVPHKEHDDQVEAELSYALDMYDLNRKVNSNESVVGWWATGNDVTNHSSVIHEYYARECNNPVHLTVDTSLQGGRMGLRAYVCIQLGVPGGKSGCMFTPIPVELTSYEPETFGLKLLQKTVGVSPAHRPKTVPPMLDLAQISEASTKLQSLLDLILKYVDDVIAHKVTPDNAVGRQLLDLIHSVPHMTHEQFTQMFNANVRNLLLVITLSQLIKTQLQLNEKLTFLPTA |
| binds | – | eIF3f1^JAMM (N-terminal JAMM domain of eIF3f1) (domain or fragment, UniProt Q9VN50 1-137) MSALNLTVRVHPVVLFQVVDAFERRNADSHRVIGTLLGSVDKGVVEVTNCFCVPHKEHDDQVEAELSYALDMYDLNRKVNSNESVVGWWATGNDVTNHSSVIHEYYARECNNPVHLTVDTSLQGGRMGLRAYVCIQL |
